# According to publication doi:10.1101/588574:
# No constants are given. Whether binding was seen depends on the method and setting. Binding seen in cells or lysates may run through a third protein. Some results given as binding are weak or reduced against the parent protein; the word gives no strength.
# T1: EXO1-2x-Strep (human), Q9UQ84
# T1 chain: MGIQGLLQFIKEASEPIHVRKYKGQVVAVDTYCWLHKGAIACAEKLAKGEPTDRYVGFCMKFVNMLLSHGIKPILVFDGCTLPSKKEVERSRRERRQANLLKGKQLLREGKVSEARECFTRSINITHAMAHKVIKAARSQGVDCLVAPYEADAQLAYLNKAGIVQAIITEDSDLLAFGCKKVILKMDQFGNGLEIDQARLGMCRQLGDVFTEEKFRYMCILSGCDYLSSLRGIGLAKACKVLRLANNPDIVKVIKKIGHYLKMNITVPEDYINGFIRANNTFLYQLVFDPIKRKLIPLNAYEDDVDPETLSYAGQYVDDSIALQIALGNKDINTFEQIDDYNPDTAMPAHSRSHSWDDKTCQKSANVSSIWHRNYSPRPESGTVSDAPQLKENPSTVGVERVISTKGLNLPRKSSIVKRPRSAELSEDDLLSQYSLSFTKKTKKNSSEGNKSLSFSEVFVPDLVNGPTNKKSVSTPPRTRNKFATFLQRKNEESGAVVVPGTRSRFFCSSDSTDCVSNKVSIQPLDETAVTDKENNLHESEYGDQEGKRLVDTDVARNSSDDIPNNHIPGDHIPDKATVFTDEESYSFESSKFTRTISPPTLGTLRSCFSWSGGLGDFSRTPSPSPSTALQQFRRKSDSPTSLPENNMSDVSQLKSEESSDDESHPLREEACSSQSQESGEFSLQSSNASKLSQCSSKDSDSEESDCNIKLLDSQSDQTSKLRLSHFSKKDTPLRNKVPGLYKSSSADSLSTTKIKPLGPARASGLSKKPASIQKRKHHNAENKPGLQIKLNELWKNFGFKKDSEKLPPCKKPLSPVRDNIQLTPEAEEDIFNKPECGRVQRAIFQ
# What was measured:
# GFP-EXO1 (human) = GFP-EXO1 (human) (UniProt Q9UQ84); test: co-IP
# [1] = biological target: T1, EXO1-2x-Strep (human), Q9UQ84; test: pull-down; settings: remark: other sources report otherwise
binding (GFP-EXO1 (human)),binding [1],Binder
binds,,"PHD-finger protein 6 (protein, UniProt Q8IWS0 1-365) MSSSVEQKKGPTRQRKCGFCKSNRDKECGQLLISENQKVAAHHKCMLFSSALVSSHSDNESLGGFSIEDVQKEIKRGTKLMCSLCHCPGATIGCDVKTCHRTYHYHCALHDKAQIREKPSQGIYMVYCRKHKKTAHNSEADLEESFNEHELEPSSPKSKKKSRKGRPRKTNFKGLSEDTRSTSSHGTDEMESSSYRDRSPHRSSPSDTRPKCGFCHVGEEENEARGKLHIFNAKKAAAHYKCMLFSSGTVQLTTTSRAEFGDFDIKTVLQEIKRGKRMKCTLCSQPGATIGCEIKACVKTYHYHCGVQDKAKYIENMSRGIYKLYCKNHSGNDERDEEDEERESKSRGKVEIDQQQLTQQQLNGN"
,no binding,"MRE11, P49959 1-708 (protein) MSTADALDDENTFKILVATDIHLGFMEKDAVRGNDTFVTLDEILRLAQENEVDFILLGGDLFHENKPSRKTLHTCLELLRKYCMGDRPVQFEILSDQSVNFGFSKFPWVNYQDGNLNISIPVFSIHGNHDDPTGADALCALDILSCAGFVNHFGRSMSVEKIDISPVLLQKGSTKIALYGLGSIPDERLYRMFVNKKVTMLRPKEDENSWFNLFVIHQNRSKHGSTNFIPEQFLDDFIDLVIWGHEHECKIAPTKNEQQLFYISQPGSSVVTSLSPGEAVKKHVGLLRIKGRKMNMHKIPLHTVRQFFMEDIVLANHPDIFNPDNPKVTQAIQSFCLEKIEEMLENAERERLGNSHQPEKPLVRLRVDYSGGFEPFSVLRFSQKFVDRVANPKDIIHFFRHREQKEKTGEEINFGKLITKPSEGTTLRVEDLVKQYFQTAEKNVQLSLLTERGMGEAVQEFVDKEEKDAIEELVKYQLEKTQRFLKERHIDALEDKIDEEVRRFRETRQKNTNEEDDEVREAMTRARALRSQSEESASAFSADDLMSIDLAEQMANDSDDSISAATNKGRGRGRGRRGGRGQNSASRGGSQRGRADTGLETSTRSRNSKTAVSASRNMSIIDAFKSTRQQPSRNVTTKNYSEVIEVDESDVEEDIFPTTSKTDQRWSSTSSSKIMSQSQVSKGVDFESSEDDDDDPFMNTSSLRRNRR"
binds,,"RNF138 (protein, UniProt Q8WVD3 1-245) MAEDLSAATSYTEDDFYCPVCQEVLKTPVRTTACQHVFCRKCFLTAMRESGAHCPLCRGNVTRRERACPERALDLENIMRKFSGSCRCCAKQIKFYRMRHHYKSCKKYQDEYGVSSIIPNFQISQDSVGNSNRSETSTSDNTETYQENTSSSGHPTFKCPLCQESNFTRQRLLDHCNSNHLFQIVPVTCPICVSLPWGDPSQITRNFVSHLNQRHQFDYGEFVNLQLDEETQYQTAVEESFQVNI"
